Source: paper PMC4573519
Results are given in words; binding and its absence hold for the method and conditions named. Some entries that bind do so weakly or less than the wild type.

By UniProt entry, the sequences of proteins in these tests, tags left out. Residues count along the entry.
UniProt P0A3R5, residues 43-152: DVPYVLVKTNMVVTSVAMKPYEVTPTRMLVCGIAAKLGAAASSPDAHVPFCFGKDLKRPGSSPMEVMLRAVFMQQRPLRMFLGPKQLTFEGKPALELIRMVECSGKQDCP
UniProt P04978, residues 28-226: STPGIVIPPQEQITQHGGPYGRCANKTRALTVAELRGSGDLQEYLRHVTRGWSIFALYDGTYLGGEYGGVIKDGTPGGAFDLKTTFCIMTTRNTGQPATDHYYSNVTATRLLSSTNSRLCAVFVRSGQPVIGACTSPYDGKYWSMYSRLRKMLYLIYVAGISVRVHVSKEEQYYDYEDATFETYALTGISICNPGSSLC
UniProt P04979, residues 29-227: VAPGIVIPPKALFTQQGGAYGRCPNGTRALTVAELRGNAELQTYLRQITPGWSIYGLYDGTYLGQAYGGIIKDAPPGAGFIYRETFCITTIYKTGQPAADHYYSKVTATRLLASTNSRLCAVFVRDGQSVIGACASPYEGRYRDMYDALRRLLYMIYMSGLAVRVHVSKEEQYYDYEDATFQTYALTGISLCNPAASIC

Target: Pertussis toxin subunit S4 with His-tag, recombinant (Bordetella pertussis) (UniProt P0A3R5)
Experiment: co-purification by the His-tag on one subunit

| Substance | binding |
| --- | --- |
| Pertussis toxin subunit S2, PtxB1 form, recombinant (from UniProt P04978 28-226) | binds |
| Pertussis toxin subunit S3, recombinant (from UniProt P04979 29-227) | binds |
